# Measured values taken from patent publication US20230104113.
# Biological target: Transferrin receptor (TfR) (human) (UniProt P02786)
# Test: activity in cells
# Settings: carrier-free internalization into HeLa cells by fluorescence microscopy; protein on the cell surface; protein details: endogenous on HeLa cells; dose not given here
row,Sequence,functional effect of the aptamer
1,GGGGGAUCAAUCCAAGGGACCCGGAAACGCUCCCUUACACCCC [circular RNA with C2.min aptamer],active
2,GGGUGAAUGGUUCUACGAUAAACGUUAAUGACCAGCUUAUGGCUGGCAGUUCCUAUAGCACCC [circular RNA with 36a aptamer],active
